Data taken from PubChem BioAssay AID328 (DTP/NCI, 2004).
The list shows only some results of the screen, not a fair sample: it gathers tests that were run many times, whatever their T/C, doses with no T/C, and many T/C values between a quarter and a half above the control. Further doses and runs are listed elsewhere. T/C: endpoint of the treated group in % of that of the vehicle group. Some doses have a count of surviving animals in place of a T/C: the source holds a T/C of zero for them, seemingly a mark for toxic or unscored doses. Some survivor counts are full or nearly so, which does not show that the dose was tolerated: survival well below the control is almost never listed, so the zero probably covers shortened survival too. Survivors were counted at the toxicity check, usually on the fifth day, unless a day is given; later deaths do not show. Schedule codes are those of the source, taken here to give the interval after Q, in days (D) or hours (H), and the number of doses after X. Some entries hold several experiments; the values are given in rising order. For survival time, this PubChem deposit counts one and a half times the control or more as active, and values a quarter to a half above the control carry no call in these data; other NCI protocols may use other cut-offs. Some T/C values are followed by the survivors on the day toxicity was checked, most often the fifth; without a count, all were alive then. Brackets with × count equal records among those shown.

System: BDF1 mice, P388 leukemia ip, median survival T/C
Assay: NCI In Vivo Anticancer Drug Screen. Data for tumor model P388 Leukemia (intraperitoneal) in B6D2F1 (BDF1) mice
Conditions: T/C endpoint: median survival time, higher T/C = longer survival
Outline: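 In tumour-bearing mice, survival after compound treatment is set against the vehicle group and given as a quotient.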

[1] = dose: 400.0 mg/kg/injection, schedule: Q01DX009 (ip), vehicle: saline with Tween-80
[2] = dose: 50.0 mg/kg/injection, schedule: Q01DX009 (ip), vehicle: Klucel (hydroxypropylcellulose) (HPC)
[3] = dose: 50.0 mg/kg/injection, schedule: Q04DX002 (ip), vehicle: Klucel (hydroxypropylcellulose) (HPC)
[4] = dose: 50.0 mg/kg/injection, schedule: Q04DX003 (ip), vehicle: Klucel (hydroxypropylcellulose) (HPC)
[5] = dose: 100.0 mg/kg/injection, schedule: Q04DX002 (ip), vehicle: Klucel (hydroxypropylcellulose) (HPC)
[6] = dose: 100.0 mg/kg/injection, schedule: Q04DX003 (ip), vehicle: Klucel (hydroxypropylcellulose) (HPC)
[7] = dose: 200.0 mg/kg/injection, schedule: Q01DX005 (ip), vehicle: Klucel (hydroxypropylcellulose) (HPC)
[8] = dose: 200.0 mg/kg/injection, schedule: Q04DX003 (ip), vehicle: Klucel (hydroxypropylcellulose) (HPC)
[9] = dose: 400.0 mg/kg/injection, schedule: Q04DX003 (ip), vehicle: Klucel (hydroxypropylcellulose) (HPC)

## CCCCNC(C)(C)COC(=O)/C=C/c1ccc(OCCCC)cc1
dose: 100.0 mg/kg/injection, schedule: Q01DX010 (ip), vehicle: saline
  survivor count: 6 of 6
dose: 200.0 mg/kg/injection, schedule: Q01DX010 (ip), vehicle: saline
  survivor count: 3 of 6
dose: 400.0 mg/kg/injection, schedule: Q01DX010 (ip), vehicle: saline
  survivor count: 0 of 6

## O=C(NO)c1ccc(O)c(O)c1
dose: 50.0 mg/kg/injection, schedule: Q01DX005 (ip), vehicle: water
  T/C: 140 % of control
dose: 100.0 mg/kg/injection, schedule: Q01DX005 (ip), vehicle: water
  T/C: 129 % of control

## CCOC(=O)c1ccc(NS(=O)c2ccccc2)cc1 (stereo not drawn)
[1]
  survivor count: 3 of 6

## COc1cc(Br)c(/C=C/[N+](=O)[O-])cc1OC
dose: 50.0 mg/kg/injection, schedule: Q04DX003 (ip), vehicle: saline with Tween-80
  T/C: 132 % of control
dose: 100.0 mg/kg/injection, schedule: Q04DX003 (ip), vehicle: saline with Tween-80
  T/C: 125 % of control

## Nc1n[nH]c(N)n1
dose: 50.0 mg/kg/injection, schedule: Q01DX001 (ip), vehicle: Klucel (hydroxypropylcellulose) (HPC)
  T/C: 88, 93 [5 of 6 alive], 94 (2×), 95 (2×), 100 (3×), 100 [5 of 6 alive] (2×), 101 (3×), 102 (2×), 103, 104 (2×), 106, 107, 110 (2×), 111, 120 (2×), 121 % of control (2×)
dose: 50.0 mg/kg/injection, schedule: Q01DX005 (ip), vehicle: Klucel (hydroxypropylcellulose) (HPC)
  T/C: 88, 91, 93 (2×), 94, 96, 98, 99 (5×), 100 (2×), 103 (3×), 104, 106 (3×), 107, 108 (2×), 110 (3×), 111, 112, 114, 118, 119, 121, 122, 123 % of control
[2]
  T/C: 87 (2×), 90 [5 of 6 alive], 91, 92, 94, 95, 97, 98, 99, 100, 100 [5 of 6 alive], 101 (5×), 102 (3×), 103, 104 (3×), 105, 106 (2×), 107, 109 (2×), 110, 111, 113, 114, 127 % of control
  survivor count: 5 of 6
[3]
  T/C: 88 (2×), 90, 91, 92 (2×), 94, 94 [5 of 6 alive], 95, 96, 97, 99 (3×), 100 (2×), 101, 102 (3×), 102 [5 of 6 alive], 103 (2×), 104 (2×), 105, 106 (2×), 113, 115 (2×), 116, 120 % of control
  survivor count: 6 of 6
[4]
  T/C: 91, 94 (2×), 95 (2×), 98 (2×), 99, 100 (2×), 101 (3×), 103 (3×), 105 (2×), 106 (2×), 109, 110 (3×), 111 (4×), 114 (2×), 115, 116, 129, 134 % of control
  survivor count: 3 of 3 and 6 of 6
dose: 100.0 mg/kg/injection, schedule: Q01DX001 (ip), vehicle: Klucel (hydroxypropylcellulose) (HPC)
  T/C: 91 (2×), 96, 98, 99, 100 (2×), 101, 102 (2×), 103, 104 (3×), 105 (2×), 107 (3×), 108 (2×), 109, 110, 111, 115, 119, 126, 127 % of control
dose: 100.0 mg/kg/injection, schedule: Q01DX005 (ip), vehicle: Klucel (hydroxypropylcellulose) (HPC)
  T/C: 90, 91, 96, 100, 101 (2×), 102, 103 (2×), 104, 105, 106, 107 [2 of 3 alive], 108 (4×), 109 [5 of 6 alive], 110 (2×), 112 (2×), 114, 115, 116 (2×), 117, 119 (3×), 120 (2×), 125, 133, 134 % of control
dose: 100.0 mg/kg/injection, schedule: Q01DX009 (ip), vehicle: Klucel (hydroxypropylcellulose) (HPC)
  T/C: 93, 95 (2×), 96, 97, 98, 99, 100, 103 (2×), 104, 105 (3×), 106, 108 (2×), 110 (2×), 111 (2×), 113 (2×), 114, 116, 118, 119 (3×), 120, 121, 126, 127, 129, 130, 171 % of control
[5]
  T/C: 88, 92 (2×), 94, 97 (2×), 99, 100 (4×), 101 (4×), 102, 103 (2×), 105 (2×), 106 (2×), 107 (2×), 109, 111 (2×), 112, 116, 117, 120 (2×), 138 % of control
  survivor count: 3 of 3
[6]
  T/C: 89, 91, 100 (4×), 101 (3×), 102 (2×), 103 (3×), 104 (2×), 105 (3×), 106 (4×), 107 (2×), 108, 109, 110 (3×), 111, 114, 121, 125, 135 % of control
  survivor count: 3 of 3
dose: 200.0 mg/kg/injection, schedule: Q01DX001 (ip), vehicle: Klucel (hydroxypropylcellulose) (HPC)
  T/C: 91, 96, 100, 101, 102, 103, 105, 106 (3×), 107 (3×), 108 (5×), 109 (3×), 111, 112 (3×), 114, 114 [5 of 6 alive], 120 % of control
[7]
  T/C: 97, 105, 107 (2×), 108 (3×), 109, 110 (2×), 111 (3×), 112 (2×), 114, 115 (3×), 116, 117, 121, 123, 124, 125, 126 (4×), 128, 131, 134, 135, 138 % of control
  survivor count: 3 of 3
dose: 200.0 mg/kg/injection, schedule: Q01DX009 (ip), vehicle: Klucel (hydroxypropylcellulose) (HPC)
  T/C: 90, 92, 96, 102, 104, 105 [2 of 3 alive], 106 (2×), 109, 111 (2×), 112, 113, 114, 115, 116, 117 (2×), 118, 120 (2×), 121, 122 (2×), 123 (2×), 126, 128, 133, 134 [5 of 6 alive], 137 (3×), 142, 144, 146 % of control
dose: 200.0 mg/kg/injection, schedule: Q04DX002 (ip), vehicle: Klucel (hydroxypropylcellulose) (HPC)
  T/C: 88, 89, 92, 95, 97, 98, 100 (3×), 101, 101 [5 of 6 alive], 102, 103 (3×), 105, 106 (3×), 107 (2×), 108 (2×), 109, 110 (2×), 111 [5 of 6 alive], 112, 115, 116, 117, 120 (2×), 121 % of control
[8]
  T/C: 91, 92, 95, 96 (2×), 99 (2×), 100, 101, 102 (3×), 103, 104 (2×), 105, 106 (2×), 107 (3×), 108, 109 (2×), 110 (2×), 111 (2×), 112 (2×), 113, 115 (2×), 118, 130 % of control
  survivor count: 3 of 3
dose: 400.0 mg/kg/injection, schedule: Q01DX001 (ip), vehicle: Klucel (hydroxypropylcellulose) (HPC)
  T/C: 89, 93, 94, 95, 97 [5 of 6 alive], 100 (2×), 102, 103, 104, 105 (2×), 106 (2×), 108 [4 of 6 alive], 109 (3×), 110, 111 (3×), 112 (3×), 116 [5 of 6 alive], 120, 127 % of control
dose: 400.0 mg/kg/injection, schedule: Q01DX005 (ip), vehicle: Klucel (hydroxypropylcellulose) (HPC)
  T/C: 96, 103, 106, 109, 110 (2×), 111, 112 (2×), 113, 114 (2×), 116, 118, 120 (2×), 122, 125, 126, 127 (2×), 128, 130, 131, 132, 133, 135, 136 (3×), 138, 140, 141, 153, 170 % of control
dose: 400.0 mg/kg/injection, schedule: Q01DX009 (ip), vehicle: Klucel (hydroxypropylcellulose) (HPC)
  T/C: 109, 110, 112, 113, 114 [2 of 3 alive], 115, 115 [2 of 3 alive], 116, 118, 119, 120, 122 (2×), 126, 126 [5 of 6 alive], 127, 128, 131, 133, 134 (2×), 135 [5 of 6 alive], 136, 137, 138, 139, 142, 143, 146, 147, 148 (2×), 153 [5 of 6 alive], 160, 163, 172 % of control
dose: 400.0 mg/kg/injection, schedule: Q01DX009 (ip), vehicle: saline
  T/C: 136 % of control
dose: 400.0 mg/kg/injection, schedule: Q04DX002 (ip), vehicle: Klucel (hydroxypropylcellulose) (HPC)
  T/C: 88, 92 (2×), 95, 97 (2×), 98, 100 (3×), 102 (2×), 103, 105, 106, 107 (3×), 108 (2×), 109 (2×), 110, 111 (2×), 112, 113, 117 (2×), 119, 120 (2×), 123, 128 % of control
[9]
  T/C: 88, 91, 93, 97, 100 (3×), 101 (2×), 102, 103 (2×), 104, 105 (4×), 107 (2×), 108, 109 (2×), 110 (3×), 111 (4×), 113, 114, 116, 125, 129, 155 % of control
  survivor count: 3 of 3

## CC1(COCCOCC2(C)CO2)CO1 (stereo not drawn)
dose: 264.0 mg/kg/injection, schedule: Q01DX009 (ip), vehicle: saline
  T/C: 145 % of control

## CN(C)CCC(=O)C(=Cc1ccc(Cl)c(Cl)c1)C(=O)CCN(C)C
dose: 200.0 mg/kg/injection, schedule: Q01DX005 (ip), vehicle: saline
  survivor count: 3 of 5

## O=C(Nc1ccccc1C(F)(F)F)Nc1cccc2ccccc12
dose: 100.0 mg/kg/injection, schedule: Q01DX001 (ip), vehicle: saline with Tween-80
  survivor count: 6 of 6

## CN1CCN(CCOC(=O)N2c3ccccc3Sc3ccccc32)CC1
dose: 25.0 mg/kg/injection, schedule: Q04DX003 (ip), vehicle: saline
  survivor count: 6 of 6
dose: 50.0 mg/kg/injection, schedule: Q04DX003 (ip), vehicle: saline
  survivor count: 6 of 6
dose: 100.0 mg/kg/injection, schedule: Q04DX003 (ip), vehicle: saline
  survivor count: 5 of 6
dose: 200.0 mg/kg/injection, schedule: Q04DX003 (ip), vehicle: saline
  survivor count: 6 of 6

## C(=NCCc1ccccc1)c1ccccc1B1OB(c2ccccc2C=NCCc2ccccc2)OB(c2ccccc2C=NCCc2ccccc2)O1
[8]
  survivor count: 6 of 6

## CCCCCCCCCCCCCC/[N+]([O-])=C/c1ccc([N+](=O)[O-])o1
dose: 50.0 mg/kg/injection, schedule: Q04DX002 (ip), vehicle: saline with Tween-80
  survivor count: 5 of 6
dose: 100.0 mg/kg/injection, schedule: Q04DX002 (ip), vehicle: saline with Tween-80
  survivor count: 6 of 6

## CC(=O)N(O)CCCCCNC(=O)CCC(=O)N(O)CCCCCNC(=O)CCC(=O)N(O)CCCCCN
dose: 200.0 mg/kg/injection, schedule: Q01DX009 (ip), vehicle: saline with Tween-80
  survivor count: 5 of 6

## c1cc(OCC2CO2)ccc1OCC1CO1 (stereo not drawn)
dose: 118.0 mg/kg/injection, schedule: Q04DX003 (ip), vehicle: saline with Tween-80
  T/C: 142 % of control
dose: 264.0 mg/kg/injection, schedule: Q04DX003 (ip), vehicle: saline with Tween-80
  T/C: 145 and 146 % of control
dose: 400.0 mg/kg/injection, schedule: Q04DX003 (ip), vehicle: saline with Tween-80
  T/C: 136 % of control [5 of 6 alive]

## O=C(NNC(=O)OCc1ccccc1)OCc1ccccc1
[9]
  survivor count: 4 of 6

## CCCCCCSc1ncnc2nc[nH]c12
[1]
  survivor count: 3 of 6
